The other results are listed elsewhere or left out.

The target of the assay is T1, OsSMF1 (Oryza sativa, UniProt Q6ZLB0 1-436).
T1 sequence: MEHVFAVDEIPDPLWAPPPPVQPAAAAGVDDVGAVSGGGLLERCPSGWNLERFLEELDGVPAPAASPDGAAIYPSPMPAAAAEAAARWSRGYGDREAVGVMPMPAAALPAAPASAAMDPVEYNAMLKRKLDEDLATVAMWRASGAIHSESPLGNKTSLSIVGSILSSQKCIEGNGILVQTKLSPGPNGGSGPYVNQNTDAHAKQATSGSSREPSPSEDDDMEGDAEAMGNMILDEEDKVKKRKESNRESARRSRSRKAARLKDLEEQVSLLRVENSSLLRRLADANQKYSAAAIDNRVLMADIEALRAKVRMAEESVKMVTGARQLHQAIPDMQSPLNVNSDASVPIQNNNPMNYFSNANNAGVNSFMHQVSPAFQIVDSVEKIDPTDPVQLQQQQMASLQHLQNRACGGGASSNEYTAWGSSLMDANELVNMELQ
Put plainly: protein-binding microarray (RPBM); PBS, 2% BSA, 51.3 ng/ul salmon testes DNA, 50 uM zinc acetate, 200 nM TF, 25 C, 1 h; high values mean tight binding. The note with it: protein: recombinant; tags: N-terminal polyhistidine and DsRed monomer fusion (pET32a); chain copies: 2; label: CyDye5-dUTP incorporated in the synthesized complementary strand; 3' TTTTT single-stranded linker to array surface; dsDNA, one strand shown. In a few lines: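 Ni–NTA purification followed expression in E. coli BL21-CodonPlus of transcription factors fused N-terminally to a polyhistidine tag and DsRed. At 200 nM in PBS with 2% BSA, salmon testes DNA and 50 µM zinc acetate, the protein was incubated for 1 h at 25 °C with a custom Agilent array that had been primer-extended with Cy5-dUTP and blocked with 2% BSA. After washing, the array was read on an Axon 4000B scanner. The binding signal is per-feature fluorescence intensity in arbitrary units.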
For the sequence “CTATCGCGAATAGGGGCTTCGTTGTAATTGGATATAGGCCCGGAGTCACCTAGTGCAG”, the binding signal was 3320 fluorescence intensity (a.u.).

Regarding “TGCTTGTCAGACTCAGATAACTTCAATTAACTGTCTACGACGGAGTCACCTAGTGCAG”, the binding signal was 4210 fluorescence intensity (a.u.). With “GGTGAGTGAGAGGGAGGTCGACGGGTGGCAAGCAATTTTCCGGAGTCACCTAGTGCAG”, the binding signal was 14100 fluorescence intensity (a.u.). The same measure for “ACCTTCAGGGCAAGAGCTATAGCTAAGCTACTGTGTCACCCGGAGTCACCTAGTGCAG”: 3360 fluorescence intensity (a.u.). The same measure for “TCCTGCCAGACCGCCCGCGCCGTCATGTTATCGTCATTTTCGGAGTCACCTAGTGCAG”: 3500 fluorescence intensity (a.u.); for “GCCGGATCGAACTCATCAGCATCAGCACATCTCTCTTCTCCGGAGTCACCTAGTGCAG”: 3680 fluorescence intensity (a.u.); for “CAACGTACACCACTAGGTGTGCACGCATGCAGTTCCTTGACGGAGTCACCTAGTGCAG”: 4330 fluorescence intensity (a.u.). For “CCGGCACGGCCCGAGGCGTGTTGGGCCGTGCCTGGGCCGTCGGAGTCACCTAGTGCAG”, the binding signal was 3270 fluorescence intensity (a.u.). Consider “TTGCATCTTTCTCTTTCGCTTTGCCGTGTCAACGCGAACACGGAGTCACCTAGTGCAG”, for which the binding signal was 4560 fluorescence intensity (a.u.). The same measure for “ATTGCAGTCCAACTCACCACTGACTGGAAACCAAATACTACGGAGTCACCTAGTGCAG”: 5900 fluorescence intensity (a.u.). “TAATACCTTCTGCGGTGCCATGTTCAGCAGCAACCTCATTCGGAGTCACCTAGTGCAG”: the binding signal is 3310 fluorescence intensity (a.u.). On to “CGCACGGCCGCTACATGCCCACGTCGTTCTCGCCTCGCTACGGAGTCACCTAGTGCAG”, for which the binding signal is 3440 fluorescence intensity (a.u.). In the case of “TTTGAATCAAAGGAATGGATCTTATGGAATCCTATAAAATCGGAGTCACCTAGTGCAG”, the binding signal is 40400 fluorescence intensity (a.u.). Consider “TCCGAATTTGGGCGTGTCCTGGTCTCCTGGACACGGCAAACGGAGTCACCTAGTGCAG”, for which the binding signal is 3290 fluorescence intensity (a.u.). For the sequence “AAAGAATGGGAATTACAAACTGGTGACAATGATATTATGCCGGAGTCACCTAGTGCAG”, the binding signal was 3570 fluorescence intensity (a.u.). “ATTGAGAGTGGTTTAGCGCCTACGTGGCAGTTTGACTTGGCGGAGTCACCTAGTGCAG”: the binding signal was 19000 fluorescence intensity (a.u.).

Regarding “GCCAAGTCGACACGTGGCTCTCCTCCTCCGAATTCAGAAGCGGAGTCACCTAGTGCAG”, the binding signal is 11300 fluorescence intensity (a.u.). For “AAGAACTAGCACCTATGAATCCTCGTAGGTGCGTGTGCCACGGAGTCACCTAGTGCAG”, the binding signal is 4200 fluorescence intensity (a.u.). In the case of “CAAACTCCAAGTCAATCCTGACGATCCAGACAGGCAGACACGGAGTCACCTAGTGCAG” it was 3300 fluorescence intensity (a.u.); in that of “GTATCCAGACCAGGAAAAGACAAAGGGCTGGTGATCTCCACGGAGTCACCTAGTGCAG”, 16600 fluorescence intensity (a.u.); in that of “ACACGAGAAGATGTCAGCATCCGCTTCAATCTGCGTCGCACGGAGTCACCTAGTGCAG”, 4150 fluorescence intensity (a.u.). In the case of “GCTCTGACACACTTGACACTGCACGCGCGTGCGCGACAATCGGAGTCACCTAGTGCAG” it was 3510 fluorescence intensity (a.u.); in that of “CGTTATTGTTGCAGCAAACTGAAACGTGACGCTAATGTTGCGGAGTCACCTAGTGCAG”, 4310 fluorescence intensity (a.u.); in that of “GAATGTATGAAGCTGTCACCAACCCGAAGCACCGGGTTTGCGGAGTCACCTAGTGCAG”, 4290 fluorescence intensity (a.u.). The same measure for “GATAAATTTCTATGTCAGAGTATCCTTTTATCACTATATGCGGAGTCACCTAGTGCAG”: 3340 fluorescence intensity (a.u.). For the sequence “GGGCTTCGTCCCCATCATCTCCTGCCACCTCAAACACCTGCGGAGTCACCTAGTGCAG”, the binding signal is 3520 fluorescence intensity (a.u.). In the case of “AACCGGTACAATGTAATTAAATAGTGTCACCACCTTACTACGGAGTCACCTAGTGCAG”, the binding signal is 3960 fluorescence intensity (a.u.). Take “GTGGCGGTGGTGGGAGTAGTGCGTCAGCCGCCGCCGCCGGCGGAGTCACCTAGTGCAG”: the binding signal was 5500 fluorescence intensity (a.u.). In the case of “CCGCCCGAGCTGGCCAGCTCGTCTCCTTCGTCATCAGCACCGGAGTCACCTAGTGCAG” it was 5070 fluorescence intensity (a.u.); in that of “ACACTTAACAACGGTGTCAAGCGAAATGGCCCCATGTCATCGGAGTCACCTAGTGCAG”, 3290 fluorescence intensity (a.u.).

Consider “ATGATGAAACCTCAAGCTGCATTACTTTTCCAATAGTTTGCGGAGTCACCTAGTGCAG”, for which the binding signal is 5940 fluorescence intensity (a.u.).

Consider “ACAAGAAATATTCAATATTCTTGCGTCAGTACTGTAGCGGCGGAGTCACCTAGTGCAG”, for which the binding signal is 5900 fluorescence intensity (a.u.).

In the case of “GAGCCTGCAAAGCTTTTGTTTGCAAACTATTGTCCGTGATCGGAGTCACCTAGTGCAG”, the binding signal was 3200 fluorescence intensity (a.u.). The same measure for “GACGAATTCATTAAGCATAATTAATCTGTCATTAGCAAATCGGAGTCACCTAGTGCAG”: 3200 fluorescence intensity (a.u.); for “TCAGGTCACACCCTCCTCTCACACATCAGCTTGTGCAAAGCGGAGTCACCTAGTGCAG”: 3780 fluorescence intensity (a.u.); for “GAACGGTAGAATGATTATTGCTCCTTCAGTTTTCGAGTAACGGAGTCACCTAGTGCAG”: 3320 fluorescence intensity (a.u.). In the case of “GCCGAGCGGAGGCAGTATCCCTGCATAGATGGTTCACCCCCGGAGTCACCTAGTGCAG” it was 3480 fluorescence intensity (a.u.); in that of “GGTGGGGCCCACGCTCCAGCGTCCGAGCCAGCTGGCGGCACGGAGTCACCTAGTGCAG”, 3870 fluorescence intensity (a.u.); in that of “CGCCGTCGCCGTCGCCGTCGCCGCCGCGGCCAGATCCCCTCGGAGTCACCTAGTGCAG”, 4340 fluorescence intensity (a.u.). In the case of “AGCCCTCGATCTGGACCGTCTGTTCTGTTTACAGATCCAGCGGAGTCACCTAGTGCAG” it was 3970 fluorescence intensity (a.u.); in that of “ATGAGTAGCTCCTTGCTTGTGTGTCACTCTACCCTTTGGACGGAGTCACCTAGTGCAG”, 5200 fluorescence intensity (a.u.); in that of “GCAGGTTGATGCATAGCTCGCGCGCACGCGCCTGTGTCCACGGAGTCACCTAGTGCAG”, 3450 fluorescence intensity (a.u.).

Values taken from article PMC7819943, “Rice protein-binding microarrays: a tool to detect cis-acting elements near promoter regions in rice”.
